This is one part of the list. Rule as the data show it: active = 150% or more and inactive = the rest. Repeats are few or missing, and single values can be far off.
Tested on: Staphylococcus aureus JE2-lux inside RAW 264.7 macrophages
Test: intracellular bacterial bioluminescence relative to DMSO vehicle; higher = higher intracellular bacterial metabolic activity
Details: 10 µM; treatment time 4 h; gentamicin 50 µg/ml

Intracellular bacterial bioluminescence, inactive:
CN1C(=O)N(CC(=O)NCc2ccccc2F)c2cccnc2N1C 102%
CC(C)CC(=O)N1CCC(c2nnc(C(=O)Nc3cccc(Cl)c3)s2)CC1 89.9%
Cc1ccc(S(=O)(=O)NCCNc2nc3c(C)cc(C)cc3cc2C#N)cc1 98%
C#CCn1/c(=N/C(=O)COc2ccc(Cl)cc2Cl)sc2cc(S(N)(=O)=O)ccc21 77.1%
Cc1ccccc1Cn1cc(S(=O)(=O)c2ccc(F)cc2)c(=O)c2cc3c(cc21)OCO3 68.7%
Cc1ccc(C)c(S(=O)(=O)N2CCCC2CNC(=O)C(=O)NCc2cccnc2)c1 (configuration not stated) 113%
O=C(c1cc(-c2cccs2)on1)N(Cc1cccc(Cl)c1)C1CCS(=O)(=O)C1 (configuration not stated) 85.7%
CC(=O)c1c2c3c(cccc3[nH]c1=O)C(=O)c1ccccc1-2 125%
CCOC(=O)c1ccc(Oc2ncnc3sc4c(c23)CCCCC4)cc1 52.9%
Cc1ccc2ncc(NC(=O)N3CCn4cnnc4C3)c(O)c2c1 120%
O=C(O)c1nc(N2CCCCC2)c2c(-c3ccccc3F)noc2n1 106%
COc1cc(C(=O)Nc2nc3c(ccc4ccccc43)s2)cc(OC)c1OC 71.3%
O=C(Nc1nc2c(s1)CCC2)c1cccc(NS(=O)(=O)c2ccc(F)cc2)c1 109%
Cc1ccc(C(=O)c2sc3nc(C)c(C)c(C)c3c2N)cc1 78%
CCOC(=O)CC(NC(=O)NCc1ccnc(N2CCSCC2)c1)c1ccccc1 (configuration not stated) 59.9%
COc1cc(Cl)c(NS(=O)(=O)c2cc(-c3cc(C)no3)cs2)c(OC)c1 81%
O=C1COc2ccc(S(=O)(=O)N3CCC(NC(=O)C4CCCC4)CC3)cc2N1 126%
Cc1nnc(NC(=O)c2ccccc2C(F)(F)F)s1 97.8%
Brc1ccc(-c2csc3ncnc(N4CCCCC4)c23)cc1 85.2%
CCOC(=O)c1ccccc1Nc1nc(C)nc2c1CCC2 94.5%
O=c1cc(CO)oc(C(Nc2ccccn2)c2cccc(F)c2)c1O (configuration not stated) 95.5%
COc1cccc2sc(NC(=O)c3ccc(N4C(=O)CCC4=O)cc3)nc12 66.3%
NC(=O)c1c(NC(=O)C2=COCCO2)sc2c1CCCCC2 69.7%
COc1cc2cc(C#N)c(SCC(=O)NCc3ccco3)nc2cc1OC 99.4%
Cn1c(=O)c2c(nc(SCCN3CCCCC3)n2Cc2ccc(Cl)cc2)n(C)c1=O 80.9%
CS(=O)(=O)c1cc([N+](=O)[O-])c(Sc2nc3ccccc3o2)c([N+](=O)[O-])c1 53.5%
CCc1ccc(NC(=O)CCc2nc(-c3nn(-c4ccc(Cl)cc4)c(=O)n(C)c3=O)no2)cc1 42.1%
COc1ccc(-c2cnc3c(-c4ccccc4)c(C)nn3c2N)cc1OC 94.3%
COc1ccc(OC)c(NC(=O)C2=C(C)NC(=S)NC2c2ccc(C(C)C)cc2)c1 (configuration not stated) 49.3%
O=C1Nc2ccc(Br)cc2/C1=C1/SC(=S)N(C(Cc2ccccc2)C(=O)O)C1=O (configuration not stated) 75.2%
O=C(CN1C(=O)c2ccccc2S1(=O)=O)Nc1ccon1 89.6%
CCc1cccc(C)c1NC(=O)CSc1nnc(-c2ccncc2)o1 102%
CCOC(=O)c1ccc2c(c1)s/c(=N/C(=O)c1cccc(S(=O)(=O)CC)c1)n2CC 113%
Cc1ccc2sc(N(CCCn3ccnc3)C(=O)c3ccco3)nc2c1C 94.5%
Cn1c2ccc(F)cc2c2nnc(SCC(=O)NC3CCCCC3)nc21 101%
O=c1c(SCc2ccc(Cl)cc2)nccn1-c1ccc(F)cc1 102%
O=C(NCCc1nc2cccnc2n1C1CCCC1)NCc1ccco1 86.1%
CCN(CC)C(=O)c1cnc2ccc(Cl)cc2c1O 130%
COc1cccc(-n2c(=O)[nH]c3c(C(N)=O)nc(-c4ccccc4Cl)nc32)c1 71.9%
CCOc1ccc(-n2c(C)c(C)c3c2ncn2ncnc32)cc1 93.2%
Cc1cc2oc(C(=O)Nc3ccccc3F)c(C)c2cc1C 104%
CNS(=O)(=O)c1cc(-c2cc(C(=O)Nc3ccc(C(C)C)cc3)n[nH]2)ccc1OC 82.6%
COc1ccc(C(=O)Nc2sc3c(c2C(N)=O)CC(C)CC3)cc1OC (configuration not stated) 96.1%
Cc1nn2c(C(F)(F)F)cc(-c3ccncc3)nc2c1-c1ccc(Cl)cc1 104%
Cc1cc(NC(=O)Cc2ccccc2)nc2c1c(=O)oc1ccccc12 73.5%
Cc1ccc(NC(=O)c2cnc3n(c2=O)CCS3)c(Br)c1 118%
COCCCn1c(-c2ccc(Br)cc2)nc(=S)c2c1CCCC2 120%
O=C(NNC(=O)c1cc2ccccc2oc1=O)c1ccccc1 120%
Cc1ccc(Nc2c(C(=O)N3CCN(c4cccc(Cl)c4)CC3)cnc3c2c(C)nn3C)cc1 30.8%
CN1CCN(n2c3c(c(SCC(=O)NCc4ccc5c(c4)OCO5)nc2=O)CCCC3)CC1 98.1%
O=C(Nc1ccc(I)cc1)c1cc2cc(Cl)ccc2oc1=O 77.7%
CCCc1c(C)nc(N2CCN(c3ccc(F)cc3)CC2)[nH]c1=O 104%
O=C(Cn1cc(C(=O)c2ccc(Cl)cc2)c(=O)c2cc3c(cc21)OCCO3)Nc1ccc(F)cc1 100%
COCCOC(=O)Cn1nc2c3c(C)c(C)sc3nc(C)n2c1=O 87.4%
Cc1nc(NC(=O)CSc2nc3ccccc3n2CC(=O)NC(C)(C)C)sc1C 99.2%
Cc1cc(SCc2ccccc2F)nc(=O)[nH]1 128%
COc1cccc(NC(=O)CSc2nccn(-c3ccc(OC)c(Cl)c3)c2=O)c1 89.6%
COCCNC(=O)C(=O)Nc1ccc2c(c1)CCCN2C(=O)c1cccs1 77%
O=C(CS(=O)(=O)c1c[nH]c2ccccc12)NC1CCCCC1 113%
CN1CCc2cc(C(CNC(=O)Cc3ccc(-c4ccccc4)cc3)N3CCOCC3)ccc21 (configuration not stated) 105%
CC(CCc1ccccc1)NC(=O)c1ncoc1-c1ccccc1F (configuration not stated) 30.5%
O=C(NCC1CCCO1)C(=O)Nc1cc2c3c(c1)CCC(=O)N3CCC2 (configuration not stated) 123%
O=C(N/N=C\c1cccnc1)c1n[nH]c2c1CCCC2 138%
Cc1c(NC(=O)CN2C(=O)C(=O)c3ccccc32)c(=O)n(-c2ccccc2)n1C 103%
COc1cc(C(=O)Nc2c[nH]c3ccccc23)c2ccccc2n1 135%
COc1ccc(-c2csc3ncnc(NCCCO)c23)cc1 127%
CN1CCOc2ccc(NC(=O)c3ccc(F)cc3)cc2C1=O 99.4%
CCCCOc1ccc(CNC(=O)C2CCN(c3ccc4nnc(C)n4n3)CC2)cc1 51.4%
COc1ccc(C(=O)Nc2nc(CC(=O)NCc3cccnc3)cs2)cc1 109%
COc1ccc(Cl)cc1NS(=O)(=O)c1cc2c3c(c1)C(C)C(=O)N3CCC2 (configuration not stated) 109%
Cc1cccc2c(C(=O)Nc3cccc(C(=O)N4CCCCC4)c3)cc(O)nc12 118%
Cc1nc(NCCC2=CCCCC2)c2onc(-c3ccccc3)c2n1 54.9%
O=C(NCCCN1CCOCC1)c1cc(-c2ccccc2)nc2n[nH]c(-c3ccc(F)cc3)c12 106%
CC(C)CNC(=S)N1CCC(n2cnc3cc(F)ccc32)CC1 125%
COC(=O)c1[nH]c(C)c(C(=O)C2=C(O)C(=O)N(CCN(C)C)C2c2ccncc2)c1C (configuration not stated) 102%
Cc1nonc1CC(=O)NCCn1nc2c(C)cc3ccccc3n2c1=O 95.5%
O=C(CSc1nc(=O)[nH]c2c1CCC2)c1ccc(F)cc1 104%
O=c1[nH]c(=O)c2cc(S(=O)(=O)Nc3ccccc3-c3ccccc3)ccc2[nH]1 114%
O=C(NCc1ccccc1)C(c1cccs1)N(C(=O)c1ccccn1)c1ccccc1F (configuration not stated) 63.8%
Cn1c(=O)c2c(SCC(=O)Nc3ccc(F)cc3)nc(-c3cccs3)nc2n(C)c1=O 99%
CCOc1ccc(S(=O)(=O)N2CCN(c3cc(Nc4ccc(C)cc4)nc(C)n3)CC2)cc1 92.7%
C=CCOCC(O)Cn1c(N2CCN(Cc3ccccc3)CC2)nc2c1c(=O)[nH]c(=O)n2C (configuration not stated) 88.3%
O=c1[nH]c(=O)n(C2CC(O)C(CO)O2)cc1I (configuration not stated) 110%
Cc1ccc(NC(=O)Nc2c(-n3cnnc3)nn(C)c2C)cc1 114%
Cc1nc(CNS(=O)(=O)c2cc([N+](=O)[O-])ccc2C)cs1 98.6%
COc1ccc([N+](=O)[O-])cc1NC(=O)c1ccccc1NS(=O)(=O)c1ccccc1 95.9%
O=C1C=C/C(=N\Oc2ccc([N+](=O)[O-])cc2[N+](=O)[O-])c2cccnc21 19.3%
COCCn1ccc2nc(C)c(C(=O)Nc3cc(OC)cc(OC)c3)cc2c1=O 88.3%
Cc1oc2ncnc(Oc3ccccc3F)c2c1C 126%
COc1ccc(C2NC(=S)NC(C)=C2C(=O)Nc2ccc(F)c(F)c2)cc1OC (configuration not stated) 101%
O=C(Nc1nc2c(Cl)c(Cl)ccc2s1)c1cc2ccccc2oc1=O 102%
COc1ccc(-c2ocnc2C(=O)N2CCC(C(N)=O)CC2)cc1OC 101%

4 compounds picked at random from the list so far, as already listed:
Intracellular bacterial bioluminescence, inactive:
CC(=O)c1c2c3c(cccc3[nH]c1=O)C(=O)c1ccccc1-2 125%
COc1ccc(-c2csc3ncnc(NCCCO)c23)cc1 127%
Cc1nc(CNS(=O)(=O)c2cc([N+](=O)[O-])ccc2C)cs1 98.6%
COCCn1ccc2nc(C)c(C(=O)Nc3cc(OC)cc(OC)c3)cc2c1=O 88.3%

Reference: the supplement of paper PMC12578635
